# In US6635475B1, “Bacillus subtilis extracytoplasmic function σ factor” (Cornell Research Foundation, Inc., priority 1999, dated 2003):
# At least one structure is not confirmed: it was looked up by name or label, or the drawing left a doubt.
# System: sigW mutant
# Assay: sigW mutant tested for increased sensitivity to chemical insults (zones of inhibition)
# Type: cell-based, Bacillus subtilis
# Conditions: sigW mutant strain tested for increased sensitivity to a variety of chemical insults
# Description: Identification of members of the σ^W regulon allows prediction of the phenotypes likely to be associated with a sigW mutation. A sigW mutant strain is not grossly defective in any of the well-characterized processes associated with post-exponential phase, including sporulation, competence, and protein secretion. It has been previously reported that sigW transcription is not induced by a temperature shift from 37 to 50 degrees C. (Huang et al., 1998) and the same is true for the four tested members of the σ^W regulon (ydbS, yeaA, yxjI, ysdB). Since several members of the σ^W regulon encode enzymes with a predicted detoxification function (FIG. 3), a sigW mutant was tested for increased sensitivity to a variety of chemical insults.
structure (smiles),measurement,value
CN(C)[C@@H]1C(O)=C(C(N)=O)C(=O)[C@@]2(O)C(O)=C3C(=O)c4c(O)cccc4[C@@](C)(O)[C@H]3C[C@@H]12 [tetracycline],differences in the zones of inhibition,no differences
